Measured data: PubChem BioAssay AID1259308 (NCATS, 2017)
Here is an unselected part of about 59,000 reagents. Over the whole deposit, about 1,510 (2.6%) are marked active. 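Calls use total luciferase alone and ignore viability, so some active siRNAs may act by altering cell number.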 The numbers tell different reagents against one gene apart. Further read-outs or replicates are left out here.

- Aim: 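Genes whose loss raises luciferase production in HEK293 cells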 (primary screen)
- System: human HEK293 embryonic kidney cells stably expressing firefly luciferase (HEK-CMV-Luc2-Hygro)
- Reagent: single siRNA against human genes, 0.8 pmol siRNA per well
- Time to read-out: 72 h
- Measured: 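Luciferase light (ONE-Glo) measured on one replicate plate set and viability (CellTiter-Glo) on the other, scaled to a negative control siRNA, with robust z-scores and luciferase per cell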
- Reading the numbers: total luciferase, z-score and total luciferase, % of control: higher = more reporter protein produced; luciferase per cell, z-score: higher = more reporter output per viable cell
- Active means: 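Active when the median/MAD z-score for overall luciferase is greater than 3; a gene was taken forward for validation with new siRNAs if at least two of its three siRNAs passed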
- Meaning of the calls: active = raised luciferase; inactive = no rise

total luciferase, z-score	total luciferase, % of control	luciferase per cell, z-score	call	gene knocked down	reagent no.
-0.323	75.5	0.797	inactive	DYNC2I2	1
-1.42	53.7	-1.27	inactive	DYNC2I2	2
-1.36	54.8	-0.739	inactive	DYNC2I2	3
-0.346	75	-0.416	inactive	SH3BP5	1
1.21	106	1.27	inactive	SH3BP5	2
-0.23	77.3	-0.637	inactive	SH3BP5	3
0.687	95.5	0.466	inactive	IRF5	1
0.43	90.4	1.08	inactive	IRF5	2
-0.026	81.4	-0.932	inactive	IRF5	3
0.395	89.7	-0.158	inactive	TDRD7	1
-2.4	34.2	-1.27	inactive	TDRD7	2
-0.00255	81.8	-0.435	inactive	TDRD7	3
0.157	85	-0.376	inactive	FAM178B	1
1.63	114	1.47	inactive	FAM178B	2
0.374	89.3	-0.105	inactive	FAM178B	3
0.856	98.9	0.936	inactive	CCDC144BP	1
-1.51	51.9	-1.25	inactive	CCDC144BP	2
-0.323	75.5	-0.783	inactive	CCDC144BP	3
0.716	96.1	0.691	inactive	NPLOC4	1
2.99	141	2.3	inactive	NPLOC4	2
1.35	109	1.18	inactive	NPLOC4	3
1.93	120	1.62	inactive	PKIG	1
-0.342	75.1	-0.82	inactive	PKIG	2
0.375	89.3	0.81	inactive	PKIG	3
-0.196	78	-0.352	inactive	SATB2	1
0.111	84.1	0.695	inactive	SATB2	2
0.854	98.9	0.735	inactive	SATB2	3

Sorted by “luciferase per cell, z-score” (descending): 3 of the entries above
total luciferase, z-score	total luciferase, % of control	luciferase per cell, z-score	call	gene knocked down	reagent no.
1.21	106	1.27	inactive	SH3BP5	2
0.687	95.5	0.466	inactive	IRF5	1
-0.23	77.3	-0.637	inactive	SH3BP5	3

Next records follow.
total luciferase, z-score	total luciferase, % of control	luciferase per cell, z-score	call	gene knocked down	reagent no.
0.183	85.5	-0.228	inactive	TXNDC12	1
-0.237	77.2	0.316	inactive	TXNDC12	2
-0.0725	80.4	0.116	inactive	TXNDC12	3
0.096	83.8	0.881	inactive	SQOR	1
0.0836	83.5	-0.226	inactive	SQOR	2
-0.748	67	-1.46	inactive	SQOR	3
0.785	97.5	0.39	inactive	APBB1	1
-0.6	69.9	-0.732	inactive	APBB1	2
0.834	98.5	0.724	inactive	APBB1	3
-0.703	67.9	0.276	inactive	IST1	1
-0.696	68	-0.924	inactive	IST1	2
-1.25	57.1	0.0619	inactive	IST1	3
-0.353	74.9	-0.636	inactive	RIPK1	1
0.337	88.6	0.33	inactive	RIPK1	2
-0.783	66.3	0.667	inactive	RIPK1	3
0.389	89.6	0.658	inactive	MAP2K7	1
-0.316	75.6	0.125	inactive	MAP2K7	2
-1.78	46.4	-1.24	inactive	MAP2K7	3
-0.649	69	-1.12	inactive	TEX14	1
-0.204	77.8	-0.0103	inactive	TEX14	2
0.129	84.4	0.568	inactive	TEX14	3
-0.804	65.9	-0.524	inactive	FCRL6	1
-1.05	61.1	-1.07	inactive	FCRL6	2
-0.551	70.9	-0.613	inactive	FCRL6	3
2.3	128	2.02	inactive	MBD5	1
0.172	85.3	0.642	inactive	MBD5	2
0.216	86.2	-0.127	inactive	MBD5	3
-0.987	62.3	-0.863	inactive	WDR25	1
0.212	86.1	-0.44	inactive	WDR25	2
-0.3	75.9	-0.773	inactive	WDR25	3
